Target: T1, human 5-HT6 (Homo sapiens, UniProt P50406)
T1 construct: expressed in transfected cells
Experiment: Functional evaluation, cAMP (LANCE Ultra) in HEK293 cells
Format: cell-based
Conditions: antagonist mode, cAMP induced by 5-CT 1000 nM
Description: The inversion towards the agonist of the mentioned compound seems to be extremely interesting.
The supernatant was aspirated, and the cell pellet was resuspended in a stimulation buffer (1 × HBSS, 5 mM HEPES, 0.5 mM IBMX, 0.1% BSA).
The functional properties of compounds were evaluated using the LANCE Ultra cAMP detection kit (PerkinElmer). […] To investigate the antagonist activity, dopamine for D2R was added at a concentration of 10 nM, and for cell lines with 5-HT7R, 5-HT1AR, or 5-HT6R, 5-CT concentrations were adjusted, being, respectively, 10, 100, and 1000 nM, according to the receptor subtype.
For the quantification of cAMP levels, cells (5 µL) were incubated with a 5 µL mixture of necessary compounds for 30 min at room temperature in a 384-well white opaque microtiter plate (PerkinElmer). After incubation, the reaction was stopped, and cells were lysed by the addition of a 10 µL working solution (5 µL Eu-cAMP and 5 µL ULight-anti-cAMP). The assay plate was incubated for 1 h at room temperature. The time-resolved fluorescence resonance energy transfer (TR-FRET) signal was detected by an Infinite M1000 Pro (Tecan, Männedorf, Switzerland) using instrument settings from the LANCE Ultra cAMP detection kit manual.

Sequences of proteins named here, by UniProt entry; tags and fusion partners are left off.
UniProt P50406, whole entry: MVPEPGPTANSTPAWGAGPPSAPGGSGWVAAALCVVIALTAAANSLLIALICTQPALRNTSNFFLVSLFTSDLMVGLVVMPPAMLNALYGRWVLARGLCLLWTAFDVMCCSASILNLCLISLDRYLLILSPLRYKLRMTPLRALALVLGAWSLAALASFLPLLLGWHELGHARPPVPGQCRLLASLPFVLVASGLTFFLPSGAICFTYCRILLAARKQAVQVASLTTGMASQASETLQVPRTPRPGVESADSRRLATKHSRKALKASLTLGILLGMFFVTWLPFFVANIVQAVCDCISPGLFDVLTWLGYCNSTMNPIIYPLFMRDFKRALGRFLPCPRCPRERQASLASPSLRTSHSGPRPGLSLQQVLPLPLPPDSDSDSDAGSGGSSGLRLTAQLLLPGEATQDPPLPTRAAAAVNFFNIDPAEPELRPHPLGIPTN

Kb: 0.3 nM
Compound: COc1ccc(NS(=O)(=O)c2ccc(I)cc2)cc1N1CCN(C)CC1 [SB258585, reference compound]
